Data from the ROBIN nucleic acid binder screens, doi:10.1002/anie.202211358.

Oligonucleotides screened, 5′ to 3′:
T1: SAM-II riboswitch RNA pseudoknot, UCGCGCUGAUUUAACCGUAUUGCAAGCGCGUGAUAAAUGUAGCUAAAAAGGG. About 200 hits among about 21,000 compounds.
T2: TPP riboswitch RNA three-way junction, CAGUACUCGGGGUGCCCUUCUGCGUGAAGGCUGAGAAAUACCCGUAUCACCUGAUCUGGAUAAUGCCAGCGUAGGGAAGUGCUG. About 160 hits among about 24,000 compounds.
T3: PreQ1 riboswitch RNA pseudoknot, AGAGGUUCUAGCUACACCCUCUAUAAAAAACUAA. From B. subtilis. About 170 hits among about 24,000 compounds.

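Each compound is printed as two spots on a slide made to bind it covalently, so it has no test concentration; the read-out is fluorescence of the bound, labelled oligonucleotide. For the PreQ1, TPP and SAM-II riboswitches the laboratory earlier reported (doi:10.1038/s41467-019-09493-3) 1 µM RNA, 2 h, and a rule that included a mean Z-score above 3 (spot signal-to-noise against the whole library), a score well above that on a control array, and duplicate spots agreeing (coefficient of variation under 100). The data file gives only the calls; its cut-offs may differ, and compounds hitting several targets are kept. The calls come from the array alone, and fixing a compound to the slide can hide its binding.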 Key: hit = hit, no hit = tested without a hit. This is an unselected part of the compounds tested. A dash means that no call is listed here.

structure,T1,T2,T3
c1ccc(-c2cc3ccccc3[nH]2)cc1,no hit,no hit,no hit
CCN1C(=O)C(Cc2nc3ccccc3c(=O)n2CCCO)c2ccccc21 (centres unmarked),-,no hit,no hit
Nc1nnnn1CC(=O)N1CCC2(CCC(=O)N(Cc3ccccn3)C2)CC1,no hit,no hit,no hit
Cc1ccc2nc(NCc3ccc(F)cc3)c(-c3noc(C)n3)cc2c1,-,no hit,no hit
Cc1ccc(C)c(-c2cc(-c3c[nH]c(C)n3)c(C#N)c(N)n2)c1,no hit,no hit,no hit
Cc1cc(Nc2cc(NC(=O)c3c(Cl)cccc3Cl)ccn2)nc(N)n1,no hit,no hit,no hit
CN1CCc2c(n(CC(O)CN3CCCCCC3)c3ccccc23)C1=O (centres unmarked),no hit,no hit,no hit
NC(=O)[C@@H]1CCC[C@@H]1NCc1cc(O)c2cc(F)ccc2n1,no hit,no hit,no hit
Nc1cc(-c2ccccc2)cc(Br)c1O,no hit,no hit,no hit
COC(=O)c1ccc(Nc2nc3ccc(C)cc3n3cnnc23)cc1,no hit,no hit,no hit
CC(C)(O)CCc1ccc(C(=O)N2CCCCC2CO)cc1 (centres unmarked),no hit,no hit,no hit
COc1ccc(N2C(=O)CC(NCc3cccnc3)C2=O)cc1 (centres unmarked),no hit,no hit,no hit
O=C(c1ccc(-n2cnnc2)nc1)N1CCC2(CC1)c1ccccc1CC2O (centres unmarked),no hit,no hit,no hit
O=C(c1cccnc1)N1CCN(c2ccccc2Cl)CC1,no hit,no hit,no hit
N[C@H]1CN(C(=O)CCCOCc2ccccc2)C[C@@H]1C1CC1,no hit,no hit,no hit
CNc1cc(C(=O)N2CC[C@@H]3[C@@H](CCC(=O)N3CCCN)C2)ccn1,no hit,no hit,no hit
O=c1sc2ccccc2c(NCCCN2CCOCC2)c1[N+](=O)[O-],no hit,no hit,no hit
C=CCn1c(SCc2ccc(C(=O)NCCO)cc2)nc2ccccc2c1=O,no hit,no hit,no hit
Nc1ccc2c(C(F)(F)F)cc(=O)oc2c1,no hit,no hit,no hit
O=c1c2cnc3c(-c4ccccc4)cnn3c2ccn1CCO,no hit,no hit,no hit
CCOc1cc(CNCC2CCCN2CC)cc(Cl)c1OCC(N)=O (centres unmarked),no hit,no hit,no hit
O=C1NC(=O)C(=Cc2ccc3nccnc3c2)S1,no hit,no hit,no hit
CCSc1nnc(NC(=O)CN2C[C@H](O)[C@@H](N3CCCC3)C2)s1,no hit,no hit,no hit
COc1ccc(-c2cc(C(=O)NC(C)(C)CO)on2)cc1OC,-,no hit,no hit
CC(=Cc1ccco1)CN1CC[C@@H](c2ccc3c(c2)OCO3)[C@H](O)C1,no hit,no hit,no hit
Cc1cc(N2CCN(C(=O)CN3C[C@@H]4CC[C@H](CC3=O)N4)CC2)cc(C)n1,no hit,no hit,no hit
Nc1nc(Cn2c(=O)oc3ccccc32)nc(N2CCOCC2)n1,no hit,no hit,no hit
COc1ncc(-c2c(-c3ccccc3)ncn2CCNc2cccnc2)cn1,no hit,no hit,no hit
COc1cc(NS(=O)(=O)c2ccc(N)cc2)nc(OC)n1,no hit,no hit,no hit
Cc1ccsc1[C@@H]1CCN(C(=O)c2ccc(CN3CCCC3)o2)C[C@H]1O,no hit,no hit,no hit
Cc1cccc(C)c1Nc1c(-c2ccc(O)cc2)nc2cnccn12,no hit,no hit,no hit
CCc1ccc(OCc2ccccc2C(=O)Nc2ccc3nc(C)cc(N)c3c2)cc1,no hit,no hit,no hit
CCOC(=O)C(CO)NC(=O)c1cncc(Br)c1 (centres unmarked),no hit,no hit,no hit
Nc1ccc(/C=C/c2ccc3ncccc3c2)cc1,no hit,no hit,no hit
O=C(c1ccc(N2Cc3ccccc3C(O)C2)nc1)N1CCCCC1 (centres unmarked),no hit,no hit,no hit
COC(=O)c1ccc(-c2c(C#N)c(N)nc3c2CCCCC3)cc1,no hit,no hit,no hit
COc1ccc(-c2n[nH]cc2CN)cc1,hit,no hit,no hit
Cc1ccc(Nc2nc(C3(C)CC4(CC(C)(C)OC4=O)C(=O)O3)cs2)cc1 (centres unmarked),no hit,no hit,no hit
N#Cc1c(NC2CCCCC2)nc(-c2ccco2)c2c1CCCC2,no hit,no hit,no hit
CCC(C)NCCCN1CCC(O)CC1 (centres unmarked),no hit,no hit,no hit
NC1=C(c2nc(-c3ccccc3)cs2)C(=O)CN1CCCN1CCCC1=O,-,no hit,no hit
Cc1ccc2ncc(-c3ccc4c(N)c(C)ccc4n3)cc2c1,no hit,no hit,no hit
Cc1cc(Nc2ccccc2F)n2nc(-c3ccccc3)nc2n1,-,no hit,no hit
CCc1cnc(N)nc1N1CCN(c2nccc(OC)n2)CC1,no hit,no hit,no hit
COc1ccccc1-c1cccc(C(=O)NCc2csc(N)n2)c1,no hit,no hit,no hit
Cc1cc(C)cc(OCC(O)CN2CCOCC2)c1 (centres unmarked),no hit,no hit,no hit
O=C(c1cc(-c2ccccc2F)n[nH]1)N(CC=Cc1ccccc1)CCO,no hit,no hit,no hit
O=C(NCCCNc1cccnc1)c1cc(-c2ccc(O)cc2)n[nH]1,no hit,no hit,no hit
Cc1cc(Nc2ccccc2)n2nc(Cc3ccc(Cl)cc3)nc2n1,-,no hit,no hit
CCc1cccc2c3c([nH]c12)C(CC)(CC(=O)O)OCC3 (centres unmarked),no hit,no hit,no hit